Measurements from PubChem BioAssay AID504834 (National Center for Advancing Translational Sciences (NCATS), 2011).
The campaign covered roughly 320,000 compounds. About 22,000 (6.9%) were called active. Inconclusive means that the source gave no clear call. Such entries were picked first, then a sample of the others. The call rests on the fitted dose curve; in most records, active means well fitted inhibition curve with a large enough effect; inconclusive means small, poorly fitted or top-dose-only effect, or another doubt; inactive means no such curve, though single readings can be large or run the other way. Potencies beside an inconclusive call are fits to weak or partial responses and may not hold up.

assay: Primary qHTS for delayed death inhibitors of the malarial parasite plastid, 96 hour incubation; conditions: P. falciparum luciferase reporter growth; series mostly up to 28.7 µM; activity change, negative = inhibition: at the top concentration
Method in brief: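 Cell-based qHTS: luciferase-tagged P. falciparum in erythrocytes (2% hematocrit, 0.05% parasitemia final) incubated with compounds for 96 hours, 37 C, 5% CO2; luciferase detection reagent then added and luminescence measured.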
On the % scale 0 is the no-effect control and ±100 the full control effect; potency means the concentration at half of the fitted maximal effect.

Row | Structure (SMILES) | Potency | activity change, negative = inhibition
1 | COc1ccc(OC)c(C2C(C(=O)c3cc4ccccc4o3)=C(O)C(=O)N2c2cc(C)on2)c1 (stereo not given) | inconclusive: 5.86 µM [inhibitor, partial curve] | –
2 | Cc1csc(=Nc2cccnc2)n1Cc1ccco1 | inconclusive: 18.5 µM [inhibitor, partial curve, poor fit] | –
3 | CC(C)Sc1nc(N2CCOCC2)c2c3c(sc2n1)COC(C)(C)C3 | inconclusive: 1.47 µM [inhibitor, full curve, poor fit] | –
4 | CC1=NN(c2ccccc2)C(=O)C1c1ccccc1 (stereo not given) | inconclusive: 10.4 µM [inhibitor, single point] | –
5 | CCCCCn1c(CCNC(=O)CCC)nc2ccccc21 | inconclusive: 18.5 µM [inhibitor, single point] | –
6 | CCCCC(=O)Nc1ccc(NC(=O)c2ccco2)cn1 | – | inactive: 5.22%
7 | COCCn1c(SCC(=O)c2c(N)n(C)c(=O)n(C)c2=O)nc2ccccc21 | inconclusive: 18.5 µM [inhibitor, single point] | –
8 | CCOC(=O)Cc1csc(SCC(=O)NC2CCS(=O)(=O)C2)n1 (stereo not given) | – | inactive: 11.5%
9 | O=C(COc1ccccc1)NNc1c2ccccc2nc2ccccc12 | – | inactive: -12.4%
10 | O=C(NCC(c1ccco1)N1CCN(c2ccccc2)CC1)C(=O)NC1CCCC1 (stereo not given) | – | inactive: -5.31%
11 | O/N=C1\CCCc2ccccc21 | inconclusive: 0.104 µM [inhibitor, full curve, poor fit] | –
12 | CC(=O)N1CCN(C(=O)COC(=O)COc2ccc(C#N)cc2)CC1 | – | inactive: 3.54%
13 | CCCN(Cc1nc2cc(Cl)ccc2c(=O)[nH]1)C(=O)c1ccc(S(=O)(=O)N2CCCC2)cc1 | inconclusive: 13.1 µM [inhibitor, single point] | –
14 | Cc1ccc(NC(=O)COC(=O)Cc2ccsc2)c(C)c1 | – | inactive: 20.1%
15 | O=c1oc(-c2cc3ccccc3o2)nc2sc3c(c12)CCCC3 | – | inactive: 49.3%
16 | O=P(O)(O)c1ccccc1OCCCCCOc1ccccc1P(=O)(O)O | inconclusive: 13.1 µM [inhibitor, single point] | –
17 | Cn1c(SCC(=O)O)nc2sc3c(c2c1=O)CCC3 | inconclusive: 18.5 µM [inhibitor, single point] | –
18 | COc1ccc(N=Nc2nc3cc(Br)c(Br)cc3n2C)c(OC)c1 | inconclusive: 18.5 µM [inhibitor, single point] | –
19 | O=C(NC(Cc1ccccc1)C(=O)N1CCc2ccccc2C1)c1ccccc1 (stereo not given) | inconclusive: 10.4 µM [inhibitor, single point] | –
20 | CN(c1ccc(OCC(=O)N2CCCC2)cc1)S(=O)(=O)c1ccc(Cl)cc1 | inconclusive: 10.4 µM [inhibitor, single point] | –
21 | O=[N+]([O-])c1ccccc1-c1ccc(CN2CCN(c3ccccc3)CC2)o1 | inconclusive: 13.1 µM [inhibitor, single point] | –
22 | Cc1ccccc1NC(=O)C1CCN(c2cnccn2)CC1 | inconclusive: 9.28 µM [inhibitor, partial curve, poor fit] | –
23 | O=C(Cn1ncc(Cl)c(Cl)c1=O)NCC1CCCCC1 | – | inactive: -2.89%

Row | Structure (SMILES) | Potency | activity change, negative = inhibition
24 | COc1ccc(C2CC(C(F)(F)F)n3nc(C(=O)NCCN4CCOCC4)cc3N2)cc1 (stereo not given) | inconclusive: 7.38 µM [inhibitor, partial curve, poor fit] | –
25 | Cn1c(=O)c2c(nc(NCCO)n2CCCc2ccccc2)n(C)c1=O | inconclusive: 14.7 µM [inhibitor, single point] | –
26 | CCOn1c(=O)c(-c2ccc(OC)cc2)[n+]([O-])c2ccccc21 | – | inactive: -8.11%
27 | NC1=NC(=Nc2ccc(Br)cc2)c2ccccc21 | – | inactive: -7.84%
28 | Cc1nn(CCC(=O)NCc2ccc(N(C)C)cc2)c(=O)c2nn(-c3ccccc3)c(C)c12 | inconclusive: 13.1 µM [inhibitor, single point] | –
29 | Cc1cc(NN)nc(Cc2ccccc2)n1 | inconclusive: 10.4 µM [inhibitor, partial curve] | –
30 | Cc1ccc(CN2CC(C(=O)Nc3cccc(S(=O)(=O)N4CCCCC4)c3)CC2=O)cc1 (stereo not given) | inconclusive: 18.5 µM [inhibitor, single point] | –
31 | COc1ccccc1-c1sc2ccccc2c1-c1ccc(Br)nc1 | inconclusive: 2.62 µM [inhibitor, full curve, poor fit] | –
32 | O=C(CN1CCN(Cc2ccc(F)cc2Cl)C1=O)NCCCN1CCOCC1 | inconclusive: 18.5 µM [inhibitor, single point] | –
33 | CC(Sc1ccc(Cl)cc1)C(=O)NCc1ccc2c(c1)OCO2 (stereo not given) | inconclusive: 18.5 µM [inhibitor, single point] | –
34 | CC(Cl)C(=O)NC(=O)NC12CC3CC(CC(C3)C1)C2 (stereo not given) | active: 13.1 µM | –
35 | COC(=O)C(Cc1ccccc1)P(=O)(c1ccccc1)c1ccccc1 (stereo not given) | inconclusive: 18.5 µM [inhibitor, single point] | –
36 | CC(=O)Nc1ccc(NC(=O)Cn2cc3c(n2)CCCC3)cc1 | inconclusive: 18.5 µM [inhibitor, partial curve, poor fit] | –
37 | O=C(Nc1ccc(N2CCCC2)cc1)c1cccc(F)c1 | – | inactive: -70.6%
38 | COc1ccc(C=Nc2cccc3ncccc23)cc1 | inconclusive: 4.15 µM [inhibitor, partial curve] | –
39 | CC1(CCC(=O)N2CCCC(N3CCN(c4cccc(C(F)(F)F)c4)CC3)C2)CC1 (stereo not given) | inconclusive: 13.1 µM [inhibitor, single point] | –
40 | CC(C)(C)c1ccc(C2/C(=C(\O)c3ccc4c(c3)OCCO4)C(=O)C(=O)N2CCCN2CCOCC2)cc1 (stereo not given) | inconclusive: 11.7 µM [inhibitor, single point] | –
41 | CN(Cc1c(C(=O)N/N=C/c2cccc(O)c2)nnn1-c1nonc1N)C1CCCCC1 | – | inactive: 4.89%
42 | O=C(CCc1ccccc1)OCC(=O)c1ccc([N+](=O)[O-])cc1 | active: 11.7 µM | –
43 | COc1ccc(S(=O)(=O)N2CCCCC2)cc1NC(=O)CN(C)C1CCCCC1 | inconclusive: 10.4 µM [inhibitor, single point] | –
44 | Nn1c(Cc2cccc3ccccc23)nnc1SCc1ccccc1Cl | inconclusive: 11.7 µM [inhibitor, partial curve] | –
45 | CCOC(=O)N1CCN(C(=O)C(=O)Nc2sc3c(c2C(N)=O)CC(C)(C)OC3)CC1 | inconclusive: 16.5 µM [inhibitor, partial curve, poor fit] | –

2 of the compounds above, as labelled records:
CCOC(=O)Cc1csc(SCC(=O)NC2CCS(=O)(=O)C2)n1 (stereo not given)
  activity change, negative = inhibition: inactive: 11.5%
O=C(CCc1ccccc1)OCC(=O)c1ccc([N+](=O)[O-])cc1
  Potency: active: 11.7 µM
